From PubChem BioAssay AID1671190 (National Center for Advancing Translational Sciences (NCATS), 2021)
Out of some 580,000 compounds screened, about 6,100 (1.1%) were called active. This list was built around the results that the source calls inconclusive (neither active nor inactive); the mix of calls is not that of the screen. The call rests on the fitted dose curve; in most records, active means well fitted inhibition curve with a large enough effect; inconclusive means small, poorly fitted or top-dose-only effect, or another doubt; inactive means no such curve, though single readings can be large or run the other way. A potency beside an inconclusive call is a rough fit, not a confirmed value.

Protein sequences, listed by entry. Tags and fused reporters are not part of them. Lines headed by an entry give the natural chain unless they say otherwise; changes in a name come on top.
UniProt P18054: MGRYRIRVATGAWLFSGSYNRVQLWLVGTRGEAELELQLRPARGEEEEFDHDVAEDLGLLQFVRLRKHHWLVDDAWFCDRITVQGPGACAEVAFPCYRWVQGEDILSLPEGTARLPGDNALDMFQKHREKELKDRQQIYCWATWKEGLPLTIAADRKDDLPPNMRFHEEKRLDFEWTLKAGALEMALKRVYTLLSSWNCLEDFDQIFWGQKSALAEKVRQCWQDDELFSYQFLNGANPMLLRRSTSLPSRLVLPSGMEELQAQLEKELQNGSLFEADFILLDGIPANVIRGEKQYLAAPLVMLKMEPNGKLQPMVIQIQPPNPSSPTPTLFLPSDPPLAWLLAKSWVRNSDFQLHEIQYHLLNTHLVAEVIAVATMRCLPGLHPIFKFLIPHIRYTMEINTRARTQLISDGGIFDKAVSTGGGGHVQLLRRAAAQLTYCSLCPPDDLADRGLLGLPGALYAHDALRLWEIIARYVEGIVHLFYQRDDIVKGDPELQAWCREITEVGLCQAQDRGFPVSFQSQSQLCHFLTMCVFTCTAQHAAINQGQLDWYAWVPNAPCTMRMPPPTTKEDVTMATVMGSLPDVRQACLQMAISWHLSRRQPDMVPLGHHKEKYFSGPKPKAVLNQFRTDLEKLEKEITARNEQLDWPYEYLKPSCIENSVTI

Each molecule was assayed against Polyunsaturated fatty acid lipoxygenase ALOX12 (Homo sapiens) (UniProt P18054) (assay: Primary qHTS assay for inhibitors of human arachidonate 12S-lipoxygenase (ALOX12): Round 2). Settings: purified 12hLO, xylenol orange hydroperoxide absorbance; activity change, negative = inhibition: at 108 µM (top of the series) unless noted.
Summary of the method: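 Hydroperoxide product was detected by ferrous iron/xylenol orange as the 573 to 405 nm absorbance ratio. Arachidonic acid at 40 uM (final) was turned over for 30 min at room temperature by 150 nM human 12hLO, pH 7.0 Hepes buffer, after 15 min compound preincubation.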
On the % scale 0 is the no-effect control and ±100 the full control effect; potency means the concentration at half of the fitted maximal effect.

SMILES	Potency	activity change, negative = inhibition
Cc1ccc(O)c(C(=O)c2cnc3c(c2)CN(CCC(C)C)C(=O)N3)c1	inconclusive: 44.7 µM [inhibitor, partial curve, poor fit]	–
COc1nc(NCCc2ccc(OC)c(OC)c2)nc(Nc2ccccc2)n1	inconclusive: 3.55 µM [inhibitor, full curve]	–
CCC(N)C12CC3CC(CC(O)(C3)C1)C2 (configuration not stated)	inconclusive: 89.1 µM [inhibitor, single point]	–
CN(C)C=NC(=O)c1[nH]c2ccc(Cl)cc2c1-c1ccccc1	inconclusive: 0.631 µM [inhibitor, full curve, poor fit]	–
Cn1c(-c2ccccc2)n[nH]c1=S	inconclusive: 39.8 µM [inhibitor, partial curve, poor fit]	–
CN(C)CC1CCC/C(=C\c2ccc(OC(=O)/C=C/c3ccc(Cl)c(Cl)c3)cc2)C1=O (configuration not stated)	–	inactive: -23.5%
Cc1ccc(-c2csc3nc[nH]c(=S)c23)cc1	active: 35.5 µM	–
COc1cc2c(cc1OC)C(/C=C/c1ccco1)=NCC2	inconclusive: 44.7 µM [inhibitor, partial curve, poor fit]	–
Cn1c(=O)c2c(-c3ccccc3)n3c(c2n(C)c1=O)C(c1ccccc1[N+](=O)[O-])Nc1ccccc1-3 (configuration not stated)	–	inactive: -19.8%
COc1ccccc1CN=c1c([N+](=O)[O-])nn(-c2ccc3c(c2)OCCO3)n1O	–	inactive: -16.4%
Cc1ccc(CNc2cc(-c3nn4c(C)nnc4s3)ccc2C)s1	–	inactive: -2.17%
CCC(=O)Nc1ccc(NC(=O)CSc2nc3cc4c(cc3cc2C)CCC4)cc1	inconclusive: 50.1 µM [inhibitor, partial curve, poor fit]	–
Cc1nc(C)c(C(=O)C2=C(O)C(=O)N(CCN3CCOCC3)C2c2ccc(Cl)cc2)s1 (configuration not stated)	inconclusive: 12.6 µM [inhibitor, full curve, poor fit]	–
Cc1ccc(NS(=O)(=O)c2cc(C(=O)Nc3cccnc3)ccc2C)cc1	inconclusive: 25.1 µM [inhibitor, full curve]	–
CC(Oc1cccc(Cl)c1)C(=O)Nc1ccc(S(=O)(=O)NC2=NCCCCC2)cc1 (configuration not stated)	inconclusive: 70.8 µM [inhibitor, single point]	–
COc1ccccc1C(=O)NCC(=O)N1CC=C(c2ccccc2)CC1	–	inactive: 13.4%
CN1C(=O)C2(Cc3ccccc31)CN(C(=O)c1ccc(Cl)cc1)C2	–	inconclusive: -36% [inhibitor]
Cc1ccc(COc2cccc3c2CCN(Cc2ccc(F)cc2)C3=O)cc1	–	inactive: 10.9%
Cc1ccc(-c2csc(N)c2C#N)cc1	inconclusive: 39.8 µM [inhibitor, partial curve, poor fit]	–
Cn1c(=O)c2c(c3ccccc31)OC(=O)CC2c1ccc(C(F)(F)F)cc1 (configuration not stated)	inconclusive: 126 µM [inhibitor, single point]	–
CCC(=O)Nc1ccc(Nc2nc(C)c([N+](=O)[O-])c(Nc3ccc(NC(=O)CC)cc3)n2)cc1	inconclusive: 100 µM [inhibitor, partial curve, poor fit]	–
Cc1nc(-c2cc3ccc(OCC(=O)NC(CO)C(C)C)cc3oc2=O)cs1 (configuration not stated)	–	inactive: -0.174%
CCN1C(=O)C2(CCN(C(=O)COC)CC2)c2ccccc21	–	inactive: 46.9%
CCc1sc(N)nc1-c1ccccc1	–	inactive: -12.9%

Single values from the entries so far.
For activity change, negative = inhibition, `Cc1ccc(COc2cccc3c2CCN(Cc2ccc(F)cc2)C3=O)cc1` reads inactive: 10.9%
For Potency, `Cn1c(-c2ccccc2)n[nH]c1=S` reads inconclusive: 39.8 µM [inhibitor, partial curve, poor fit]
For activity change, negative = inhibition, `CN(C)CC1CCC/C(=C\c2ccc(OC(=O)/C=C/c3ccc(Cl)c(Cl)c3)cc2)C1=O` (configuration not stated) reads inactive: -23.5%

Following part

SMILES	Potency	activity change, negative = inhibition
CCC(=O)NC(c1cccs1)c1ccc2cccnc2c1O (configuration not stated)	–	inactive: -29.5%
O=C(Cc1ccccc1)Nc1ccc(N2CCCC2)cc1	inconclusive: 28.2 µM [inhibitor, partial curve, poor fit]	–
O=C(OCc1cc(Cl)c2c(c1)OCCCO2)C12CC3CC(CC(Cl)(C3)C1)C2	–	inactive: 10.3%
Cc1c(C(=O)O)c2cc(O)ccc2n1-c1ccccc1	inconclusive: 44.7 µM [inhibitor, single point]	–
CN(C)S(=O)(=O)c1ccc(N2CCCC2)c(C(=O)NCC(=O)Nc2ccc(F)c(F)c2)c1	inconclusive: 100 µM [inhibitor, single point]	–
COc1ccccc1CNc1ncnc2ccc(-c3ccoc3)cc12	inconclusive: 2.51 µM [inhibitor, full curve]	–
C[C@H](CO)N1C[C@H](C)[C@@H](CN(C)C(=O)Nc2ccc(F)cc2)Oc2ncc(-c3ccc(F)cc3)cc2C1=O	inconclusive: 39.8 µM [inhibitor, partial curve, poor fit]	–
CNC(=O)[C@@H]1CN(C(=O)c2cc(C)on2)C[C@H]1c1nc(COC)no1	inconclusive: 3.16 µM [inhibitor, full curve, poor fit]	–
COC(=O)C1=C(C)N(Cc2cccc(C(F)(F)F)c2)C(=NCc2ccc(OC)cc2)NC1c1cccc(F)c1 (configuration not stated)	inconclusive: 44.7 µM [inhibitor, partial curve, poor fit]	–
O=C(Oc1cccc([N+](=O)[O-])c1)c1ccc2c(=O)n3c(nc2c1)CCC3	–	inactive: 0%
Cc1ccc(NC(=S)Nc2cc(C(=O)O)ccc2N2CC3CC(C2)c2cccc(=O)n2C3)cc1C (configuration not stated)	inconclusive: 50.1 µM [inhibitor, partial curve, poor fit]	–
Cc1cc(SCC#N)nc2ccccc12	–	inactive: -4.3%
Cc1cccc(Nc2nc(-c3cc4ccccc4oc3=O)cs2)c1C	inconclusive: 15.8 µM [inhibitor, partial curve, poor fit]	–
Nn1c(SCc2ncc(-c3ccccc3)o2)nnc1-c1ccc(Cl)cc1	inconclusive: 28.2 µM [inhibitor, partial curve, poor fit]	–
O=C(Cc1ccccc1F)NC1CCN(c2cc(-c3cccs3)[nH]n2)C1 (configuration not stated)	–	inactive: 80.4%
CC(C)C(=O)NCCSCc1cccs1	–	inactive: 29.7%
Cc1ccc(C(=O)NCCN2C3=NC[C@H](C)N3C[C@H]2Cc2ccc(O)cc2)cc1Br	–	inactive: -27.2%
CCCOc1ccccc1CNC1CC1	–	inactive: -13.1%
c1cc(OCc2nc(-c3cccs3)no2)cc(-n2cnnn2)c1	–	inactive: -11.4%
CCOc1ccc(OCC)c(NC(=O)C2CCCN(C(=O)c3ccc(Cl)cc3)C2)c1 (configuration not stated)	–	inactive: 211%
COc1cccc(-c2cncnc2N(C)Cc2ccco2)c1	inconclusive: 5.62 µM [inhibitor, full curve]	–
Oc1ccc2ccccc2c1C=Nc1ccc(N2CCOCC2)cc1	–	inactive: 10.2%
CC(=O)Nc1ccc(SCC(=O)NNC(=O)CN(C)S(=O)(=O)c2ccc(C)cc2)cc1	–	inactive: 9.12%
Cc1onc(-c2ccccc2)c1C(=O)NNC(=S)NC(=O)c1ccc2c(c1)OCO2	inconclusive: 22.4 µM [inhibitor, full curve, poor fit]	–

SMILES	Potency	activity change, negative = inhibition
COc1ccc(/C=N/NC(=S)NCc2ccccc2)cc1OC	inconclusive: 50.1 µM [inhibitor, partial curve, poor fit]	–
Cc1cccc(NC(=O)c2cccc([N+](=O)[O-])c2O)c1C	inconclusive: 100 µM [inhibitor, single point]	–
O=C1CC(c2ccccc2)N(C(=O)CCc2ccccc2)CCCCCN1 (configuration not stated)	–	inactive: -5%
COCCNC(=O)NC(=O)CN(Cc1ccccc1)c1cccc(C)c1	–	inactive: 26.3%
CN(C)C[C@@H]1CN(C2CCOCC2)C[C@H]1NC(=O)c1ccc(F)c(Cl)c1	–	inactive: 50.6%
O=[S+]([O-])(Nc1ccccc1)c1ccc2c(c1)OCCN(Cc1cccnc1)C2	inconclusive: 5.62 µM [inhibitor, full curve]	–
CCOC(=O)CC1Sc2ccccc2NC1=O (configuration not stated)	–	inactive: -19.1%
Cc1cccc(C(=O)N2CCC3(CC2)CC(c2ccccc2)C(=O)N3)c1 (configuration not stated)	–	inactive: 16.9%
COc1ccc(C=O)cc1CSc1ccccn1	inconclusive: 100 µM [inhibitor, partial curve, poor fit]	–
CC1(C)O[C@H]2CC(=O)OC[C@]23[C@H]2CC[C@@]4(C)[C@H](c5ccoc5)OC(=O)[C@H]5O[C@]54[C@]2(C)C(=O)C[C@@H]13	inconclusive: 43.2 µM [inhibitor, partial curve, poor fit]	–
N#C/C(=C\c1ccc(OCc2ccc(C#N)cc2)cc1)c1nc2ccccc2[nH]1	–	inactive: -0.993%
c1ccc(C2=Nc3cccc4cccc(c34)N2)cc1	inconclusive: 7.94 µM [inhibitor, full curve]	–
CCCc1ccc(-c2csc(NC(=O)C3=COCCO3)n2)cc1	inconclusive: 79.4 µM [inhibitor, partial curve, poor fit]	–
Cc1ccc(CCNC(=O)c2ccc(NC(=O)N3CC(C)Sc4ccccc43)cc2)cc1 (configuration not stated)	–	inactive: -1.65%
Cc1[nH]c(N=Nc2ccccc2)nc1N=Nc1ccccc1	–	inactive: -28.7%
Cc1nc(Cl)nc(N(C)c2ccccc2)c1[N+](=O)[O-]	inconclusive: 89.1 µM [inhibitor, single point]	–
O=C(OCC(=O)c1cccc2ccccc12)c1ccc(CO)cc1	inconclusive: 100 µM [inhibitor, single point]	–
Cn1c2ccccc2c2c(C(=O)N3CCN(c4ccccc4)CC3)cn(C3CCCC3)c(=O)c21	inconclusive: 56.2 µM [inhibitor, partial curve, poor fit]	–
CC(C)Oc1cccc(C(=O)NC(=S)Nc2ccccc2N2CCOCC2)c1	inconclusive: 1.58 µM [inhibitor, full curve, poor fit]	–
CC(=O)Nc1nnc(SCc2ccc(F)cc2)s1	–	inactive: 17%
CCC(O)CNC(=O)NC(=C(Cl)Cl)c1ccc(C)c(F)c1 (configuration not stated)	–	inactive: -0.242%
CCC1=NN(C(=O)c2ccc([N+](=O)[O-])cc2)C(O)(c2ccccc2)C1 (configuration not stated)	inconclusive: 141 µM [inhibitor, partial curve, poor fit]	–
COc1ccc(-c2cc3nc(C)c(C)c(N4CCN(C(=O)c5ccoc5)CC4)n3n2)cc1	inconclusive: 28.2 µM [inhibitor, single point]	–
Cc1cccc(Cn2c(=O)n(-c3ccc(CC(=O)NCc4ccco4)cc3)c(=O)c3sccc32)c1	–	inactive: -5.95% [at 57.4 µM]

Compounds shown so far with a CF3 group, in the order listed:
SMILES	Potency	activity change, negative = inhibition
Cn1c(=O)c2c(c3ccccc31)OC(=O)CC2c1ccc(C(F)(F)F)cc1 (configuration not stated)	inconclusive: 126 µM [inhibitor, single point]	–
COC(=O)C1=C(C)N(Cc2cccc(C(F)(F)F)c2)C(=NCc2ccc(OC)cc2)NC1c1cccc(F)c1 (configuration not stated)	inconclusive: 44.7 µM [inhibitor, partial curve, poor fit]	–
